# Results deposited as PubChem BioAssay AID1259254 (NCATS, 2017)
# Purpose: 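Gene knock-downs that lead to re-replication, shown by excess G2 DNA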 (primary screen)
# Cells: human HCT116 colorectal cancer cells
# Reagent: single siRNA against human genes
# Time to read-out: 3 days
# Detection: 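Imaged Hoechst DNA stain sorts each cell into a cycle phase by DNA amount; per plate, G2 fraction set to 0% for non-targeting and 100% for GMNN siRNA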
# Direction: G2 robust z-score: higher = more G2 cells, more excess DNA replication
# Rule for the call: 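Active siRNAs have a G2 robust z of 5 or more median absolute deviations over the median, which in these data means about 38% or higher of GMNN control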
# Shown is a random part of about 59,000 reagents. Of all reagents, about 1,550 (2.6%) were called active. 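G2 share is only a proxy for re-replication; each gene was hit by three separate siRNAs, and active genes were retested.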 A number with no mark means an inactive call. The numbers tell different reagents against one gene apart. Further read-outs or replicates are left out here. The record does not give: the amount of reagent.
target,reagent,G2 robust z-score
PLXDC2 (plexin domain containing 2),1,-0.349
PLXDC2 (plexin domain containing 2),2,1.99
PLXDC2 (plexin domain containing 2),3,-1.21
SYCP1 (synaptonemal complex protein 1),1,0.37
SYCP1 (synaptonemal complex protein 1),2,-0.0023
SYCP1 (synaptonemal complex protein 1),3,1.28
"NAA20 (N-alpha-acetyltransferase 20, NatB catalytic subunit)",1,4.91
"NAA20 (N-alpha-acetyltransferase 20, NatB catalytic subunit)",2,-0.831
"NAA20 (N-alpha-acetyltransferase 20, NatB catalytic subunit)",3,0.0752
CDADC1 (cytidine and dCMP deaminase domain containing 1),1,0.477
CDADC1 (cytidine and dCMP deaminase domain containing 1),2,-0.716
CDADC1 (cytidine and dCMP deaminase domain containing 1),3,-0.583
OLFML2B (olfactomedin like 2B),1,0.206
OLFML2B (olfactomedin like 2B),2,-0.381
OLFML2B (olfactomedin like 2B),3,-0.145
TOMM22 (translocase of outer mitochondrial membrane 22),1,-1.56
TOMM22 (translocase of outer mitochondrial membrane 22),2,-0.0774
TOMM22 (translocase of outer mitochondrial membrane 22),3,-0.625
ZCCHC12 (zinc finger CCHC-type containing 12),1,-0.616
ZCCHC12 (zinc finger CCHC-type containing 12),2,-0.761
ZCCHC12 (zinc finger CCHC-type containing 12),3,0.192
PSCA (prostate stem cell antigen),1,3.77
PSCA (prostate stem cell antigen),2,-0.401
PSCA (prostate stem cell antigen),3,2.59
EOMES (eomesodermin),1,-1.62
EOMES (eomesodermin),2,0.746
EOMES (eomesodermin),3,-1.37
ZSWIM4 (zinc finger SWIM-type containing 4),1,0.7
ZSWIM4 (zinc finger SWIM-type containing 4),2,0.105
ZSWIM4 (zinc finger SWIM-type containing 4),3,-0.283
TEX13A (testis expressed 13A),1,2.93
TEX13A (testis expressed 13A),2,-0.265
TEX13A (testis expressed 13A),3,0.0986
ZFP36 (ZFP36 zinc finger CCCH-type),1,1.18
ZFP36 (ZFP36 zinc finger CCCH-type),2,8.05 (active)
ZFP36 (ZFP36 zinc finger CCCH-type),3,-0.201
CIT (citron rho-interacting serine/threonine kinase),1,-1.11
CIT (citron rho-interacting serine/threonine kinase),2,-0.639
CIT (citron rho-interacting serine/threonine kinase),3,-0.637
CDRT4 (CMT1A duplicated region transcript 4),1,0.986
CDRT4 (CMT1A duplicated region transcript 4),2,0.343
CDRT4 (CMT1A duplicated region transcript 4),3,0.214
PRDX5 (peroxiredoxin 5),1,0.987
PRDX5 (peroxiredoxin 5),2,-0.912
PRDX5 (peroxiredoxin 5),3,1.99
RALBP1 (ralA binding protein 1),1,-1.43
RALBP1 (ralA binding protein 1),2,0.381
RALBP1 (ralA binding protein 1),3,5.33 (active)
MAP2K1 (mitogen-activated protein kinase kinase 1),1,-1.12
MAP2K1 (mitogen-activated protein kinase kinase 1),2,-1.32
MAP2K1 (mitogen-activated protein kinase kinase 1),3,-0.826
TAF7L (TATA-box binding protein associated factor 7 like),1,0.0641
TAF7L (TATA-box binding protein associated factor 7 like),2,4.18
TAF7L (TATA-box binding protein associated factor 7 like),3,-0.94
CCL17 (C-C motif chemokine ligand 17),1,-0.0954
CCL17 (C-C motif chemokine ligand 17),2,0.961
CCL17 (C-C motif chemokine ligand 17),3,2.71
CNOT7 (CCR4-NOT transcription complex subunit 7),1,-0.423
CNOT7 (CCR4-NOT transcription complex subunit 7),2,-1.51
CNOT7 (CCR4-NOT transcription complex subunit 7),3,-0.88
GMEB1 (glucocorticoid modulatory element binding protein 1),1,0.283
GMEB1 (glucocorticoid modulatory element binding protein 1),2,-0.252
GMEB1 (glucocorticoid modulatory element binding protein 1),3,0.133
"SUPT3H (SPT3 homolog, SAGA and STAGA complex component)",1,0.236
"SUPT3H (SPT3 homolog, SAGA and STAGA complex component)",2,1.56
"SUPT3H (SPT3 homolog, SAGA and STAGA complex component)",3,-0.874
CBX4 (chromobox 4),1,-0.458
CBX4 (chromobox 4),2,-0.121
CBX4 (chromobox 4),3,0.495

Sorted by “G2 robust z-score” (high to low): some entries from above
target,reagent,G2 robust z-score
CDADC1 (cytidine and dCMP deaminase domain containing 1),1,0.477
"NAA20 (N-alpha-acetyltransferase 20, NatB catalytic subunit)",3,0.0752
CDADC1 (cytidine and dCMP deaminase domain containing 1),3,-0.583
CDADC1 (cytidine and dCMP deaminase domain containing 1),2,-0.716
